According to US20150329864A1, “DESIGN OF OLIGONUCLEOTIDE ANALOGS AS THERAPEUTIC AGENTS” (SPRING BANK PHARMACEUTICALS, INC., priority 2010, published 2015):
For at least one compound, name, drawing or mass did not settle the structure.

Key:
Type in all cases: cell-based
[1] = tested on: macrophages
[2] = tested on: PBMCs
[3] = tested on: HCV; assay: Combination studies against HCV in replicon assays

With CO[C@H]1C(OP(=O)(OC[C@H]2O[C@@H](n3cnc4c(N)ncnc43)CC2O)SCOC(=O)OC(C)C)[C@@H](CO)O[C@H]1n1ccc(=O)[nH]c1=O (stereo partly drawn) [Compound 6k] the “induction of IL-2” value [1] was “showed induction of IL-2”, the “induction of IFN” value [2] was “induction of IFN beta” and the “interaction when combined with other classes of anti-HCV drugs” value [3] was “synergistic activity”.
